Data reported in the supplement of paper PMC10849652.
The list shows a part of the results.

The chains behind the UniProt entries cited, without tags or fusion partners. Where a name states a change or a piece, a line headed by the entry shows the natural chain unless it says otherwise.
UniProt O15169, whole entry, looked up: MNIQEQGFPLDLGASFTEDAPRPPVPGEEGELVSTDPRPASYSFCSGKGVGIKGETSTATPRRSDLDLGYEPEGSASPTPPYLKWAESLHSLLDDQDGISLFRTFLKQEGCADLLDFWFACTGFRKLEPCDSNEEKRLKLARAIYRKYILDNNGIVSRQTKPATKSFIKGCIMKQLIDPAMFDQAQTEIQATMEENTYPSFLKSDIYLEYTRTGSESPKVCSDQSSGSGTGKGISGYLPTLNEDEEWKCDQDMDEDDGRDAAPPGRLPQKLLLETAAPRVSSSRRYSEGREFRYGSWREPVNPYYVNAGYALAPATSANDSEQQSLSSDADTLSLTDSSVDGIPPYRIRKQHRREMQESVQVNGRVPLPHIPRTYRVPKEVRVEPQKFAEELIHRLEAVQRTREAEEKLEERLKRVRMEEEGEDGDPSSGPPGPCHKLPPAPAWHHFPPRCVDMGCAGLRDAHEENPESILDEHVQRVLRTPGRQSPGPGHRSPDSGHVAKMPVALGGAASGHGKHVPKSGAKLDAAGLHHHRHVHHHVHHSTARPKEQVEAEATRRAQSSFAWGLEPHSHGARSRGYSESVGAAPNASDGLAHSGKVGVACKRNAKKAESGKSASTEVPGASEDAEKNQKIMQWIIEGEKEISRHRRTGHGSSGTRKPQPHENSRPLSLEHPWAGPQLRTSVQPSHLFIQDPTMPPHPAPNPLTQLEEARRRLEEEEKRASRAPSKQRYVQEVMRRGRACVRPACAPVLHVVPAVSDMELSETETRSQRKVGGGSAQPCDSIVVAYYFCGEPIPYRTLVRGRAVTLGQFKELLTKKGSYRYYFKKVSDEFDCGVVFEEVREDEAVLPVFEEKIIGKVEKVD
UniProt O95352: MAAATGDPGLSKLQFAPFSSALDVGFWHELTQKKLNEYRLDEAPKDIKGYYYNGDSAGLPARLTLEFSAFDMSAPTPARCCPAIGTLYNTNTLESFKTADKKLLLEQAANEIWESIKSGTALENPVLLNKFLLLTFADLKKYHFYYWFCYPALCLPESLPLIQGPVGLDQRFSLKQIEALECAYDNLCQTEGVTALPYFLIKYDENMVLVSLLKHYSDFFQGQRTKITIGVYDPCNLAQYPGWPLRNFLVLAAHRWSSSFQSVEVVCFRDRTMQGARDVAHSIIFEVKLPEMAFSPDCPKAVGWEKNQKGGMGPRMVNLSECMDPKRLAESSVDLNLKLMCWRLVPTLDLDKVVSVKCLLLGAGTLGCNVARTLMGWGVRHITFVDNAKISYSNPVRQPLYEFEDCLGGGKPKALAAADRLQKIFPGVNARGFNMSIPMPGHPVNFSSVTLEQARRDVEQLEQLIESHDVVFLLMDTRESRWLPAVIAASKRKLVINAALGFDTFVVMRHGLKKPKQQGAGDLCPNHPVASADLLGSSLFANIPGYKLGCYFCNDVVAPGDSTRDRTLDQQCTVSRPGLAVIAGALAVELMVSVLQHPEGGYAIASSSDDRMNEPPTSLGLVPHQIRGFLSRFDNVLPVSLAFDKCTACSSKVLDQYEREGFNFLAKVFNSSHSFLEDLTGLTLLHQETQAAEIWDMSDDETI
UniProt P30049: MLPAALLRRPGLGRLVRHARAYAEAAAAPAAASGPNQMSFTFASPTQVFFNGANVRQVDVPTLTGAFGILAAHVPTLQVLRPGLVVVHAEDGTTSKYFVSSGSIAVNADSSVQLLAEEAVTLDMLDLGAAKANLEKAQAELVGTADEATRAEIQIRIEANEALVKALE
UniProt O95260: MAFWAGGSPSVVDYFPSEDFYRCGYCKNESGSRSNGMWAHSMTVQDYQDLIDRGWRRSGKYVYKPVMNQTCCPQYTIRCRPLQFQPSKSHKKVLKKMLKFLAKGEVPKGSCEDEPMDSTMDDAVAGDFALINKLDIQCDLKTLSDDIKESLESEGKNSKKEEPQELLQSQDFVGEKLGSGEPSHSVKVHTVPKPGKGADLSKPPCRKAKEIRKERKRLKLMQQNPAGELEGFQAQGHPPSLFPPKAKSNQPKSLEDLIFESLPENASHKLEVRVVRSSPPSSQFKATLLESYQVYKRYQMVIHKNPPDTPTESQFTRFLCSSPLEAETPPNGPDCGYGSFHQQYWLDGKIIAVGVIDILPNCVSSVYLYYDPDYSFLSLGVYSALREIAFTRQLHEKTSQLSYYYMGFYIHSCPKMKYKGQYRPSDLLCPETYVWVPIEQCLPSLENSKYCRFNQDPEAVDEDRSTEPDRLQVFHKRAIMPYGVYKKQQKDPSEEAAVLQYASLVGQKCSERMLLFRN
UniProt Q2TAZ0: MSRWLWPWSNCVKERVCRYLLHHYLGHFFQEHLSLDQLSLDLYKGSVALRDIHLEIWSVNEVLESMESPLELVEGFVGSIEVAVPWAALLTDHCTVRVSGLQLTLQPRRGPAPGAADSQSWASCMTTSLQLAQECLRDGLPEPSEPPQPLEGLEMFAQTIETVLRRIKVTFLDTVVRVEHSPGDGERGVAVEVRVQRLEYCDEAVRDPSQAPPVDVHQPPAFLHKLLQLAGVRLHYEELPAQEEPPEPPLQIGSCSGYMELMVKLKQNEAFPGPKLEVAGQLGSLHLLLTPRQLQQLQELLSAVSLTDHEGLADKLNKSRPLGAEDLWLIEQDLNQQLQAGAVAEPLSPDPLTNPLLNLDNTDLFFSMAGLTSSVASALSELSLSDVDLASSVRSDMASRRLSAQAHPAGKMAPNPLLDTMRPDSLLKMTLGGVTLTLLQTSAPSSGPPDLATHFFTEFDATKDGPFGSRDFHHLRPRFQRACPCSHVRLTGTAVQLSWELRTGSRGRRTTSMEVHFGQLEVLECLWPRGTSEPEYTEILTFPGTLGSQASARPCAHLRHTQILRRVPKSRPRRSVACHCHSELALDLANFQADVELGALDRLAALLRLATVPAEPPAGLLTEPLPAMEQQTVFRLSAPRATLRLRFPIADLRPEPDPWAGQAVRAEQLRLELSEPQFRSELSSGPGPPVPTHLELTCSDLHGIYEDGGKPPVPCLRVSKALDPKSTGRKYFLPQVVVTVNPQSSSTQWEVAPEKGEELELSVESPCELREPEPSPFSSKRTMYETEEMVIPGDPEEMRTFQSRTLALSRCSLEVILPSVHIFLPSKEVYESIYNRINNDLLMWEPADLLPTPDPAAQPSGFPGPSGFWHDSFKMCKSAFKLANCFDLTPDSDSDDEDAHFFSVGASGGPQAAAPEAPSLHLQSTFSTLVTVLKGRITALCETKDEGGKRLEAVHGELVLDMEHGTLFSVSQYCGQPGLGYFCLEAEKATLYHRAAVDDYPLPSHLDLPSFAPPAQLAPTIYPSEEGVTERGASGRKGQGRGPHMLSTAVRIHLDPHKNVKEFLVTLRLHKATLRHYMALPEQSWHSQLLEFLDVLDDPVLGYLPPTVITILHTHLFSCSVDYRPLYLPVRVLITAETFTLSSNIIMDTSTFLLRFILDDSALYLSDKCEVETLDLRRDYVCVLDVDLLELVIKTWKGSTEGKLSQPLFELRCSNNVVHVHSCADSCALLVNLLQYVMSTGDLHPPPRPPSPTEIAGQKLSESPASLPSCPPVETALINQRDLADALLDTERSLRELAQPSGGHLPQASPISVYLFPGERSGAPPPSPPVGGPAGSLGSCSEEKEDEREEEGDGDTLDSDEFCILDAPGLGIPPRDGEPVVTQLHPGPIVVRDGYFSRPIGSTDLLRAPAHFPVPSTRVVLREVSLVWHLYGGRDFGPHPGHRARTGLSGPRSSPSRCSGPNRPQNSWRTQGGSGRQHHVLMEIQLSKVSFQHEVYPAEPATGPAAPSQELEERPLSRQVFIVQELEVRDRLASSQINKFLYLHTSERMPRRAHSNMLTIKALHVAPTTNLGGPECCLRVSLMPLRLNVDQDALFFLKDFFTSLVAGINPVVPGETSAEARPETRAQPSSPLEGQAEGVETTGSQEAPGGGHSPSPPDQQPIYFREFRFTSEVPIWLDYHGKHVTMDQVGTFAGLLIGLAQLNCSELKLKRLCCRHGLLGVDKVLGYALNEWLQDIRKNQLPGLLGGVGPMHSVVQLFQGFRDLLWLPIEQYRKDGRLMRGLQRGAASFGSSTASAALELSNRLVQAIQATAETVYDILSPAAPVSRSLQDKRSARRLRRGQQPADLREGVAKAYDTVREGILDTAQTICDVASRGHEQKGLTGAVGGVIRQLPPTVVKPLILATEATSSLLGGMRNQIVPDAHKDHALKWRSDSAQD
UniProt P36543, whole entry, looked up: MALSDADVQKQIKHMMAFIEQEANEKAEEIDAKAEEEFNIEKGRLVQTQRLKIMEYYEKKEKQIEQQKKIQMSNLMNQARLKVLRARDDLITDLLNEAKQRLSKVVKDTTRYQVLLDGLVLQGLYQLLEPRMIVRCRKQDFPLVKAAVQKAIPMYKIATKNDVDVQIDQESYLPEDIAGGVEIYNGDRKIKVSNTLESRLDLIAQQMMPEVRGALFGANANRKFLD
UniProt P54709, whole entry, looked up: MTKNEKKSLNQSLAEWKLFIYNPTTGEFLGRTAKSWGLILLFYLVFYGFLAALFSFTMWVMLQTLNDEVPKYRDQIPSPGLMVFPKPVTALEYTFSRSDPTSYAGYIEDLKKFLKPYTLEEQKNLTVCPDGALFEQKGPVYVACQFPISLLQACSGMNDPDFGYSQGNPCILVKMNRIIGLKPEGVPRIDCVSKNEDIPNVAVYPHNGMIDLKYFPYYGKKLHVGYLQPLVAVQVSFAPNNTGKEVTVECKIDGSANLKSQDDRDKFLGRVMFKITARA
UniProt O00244: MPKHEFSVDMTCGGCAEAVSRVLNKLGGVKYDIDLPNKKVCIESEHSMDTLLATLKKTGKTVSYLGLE
UniProt P25705: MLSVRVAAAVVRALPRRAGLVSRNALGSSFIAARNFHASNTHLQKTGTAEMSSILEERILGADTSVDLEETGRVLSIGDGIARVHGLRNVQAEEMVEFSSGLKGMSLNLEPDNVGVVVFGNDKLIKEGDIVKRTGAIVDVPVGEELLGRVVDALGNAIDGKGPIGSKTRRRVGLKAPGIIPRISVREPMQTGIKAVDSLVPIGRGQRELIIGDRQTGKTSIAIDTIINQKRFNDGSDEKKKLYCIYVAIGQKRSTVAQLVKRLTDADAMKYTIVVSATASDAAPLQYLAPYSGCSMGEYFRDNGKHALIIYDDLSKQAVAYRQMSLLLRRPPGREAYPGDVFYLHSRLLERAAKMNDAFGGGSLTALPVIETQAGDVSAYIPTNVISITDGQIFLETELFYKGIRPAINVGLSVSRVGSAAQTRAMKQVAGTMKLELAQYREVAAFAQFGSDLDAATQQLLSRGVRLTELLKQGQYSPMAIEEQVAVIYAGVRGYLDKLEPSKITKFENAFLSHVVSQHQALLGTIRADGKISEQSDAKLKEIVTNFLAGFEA
UniProt Q8N5M1: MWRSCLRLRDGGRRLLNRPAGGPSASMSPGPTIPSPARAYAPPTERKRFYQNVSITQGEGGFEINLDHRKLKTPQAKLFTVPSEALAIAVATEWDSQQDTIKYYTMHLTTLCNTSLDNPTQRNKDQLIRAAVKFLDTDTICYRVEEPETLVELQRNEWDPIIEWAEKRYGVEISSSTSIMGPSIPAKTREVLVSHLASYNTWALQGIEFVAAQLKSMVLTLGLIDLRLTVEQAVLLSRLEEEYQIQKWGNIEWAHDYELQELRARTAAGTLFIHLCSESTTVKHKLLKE
UniProt Q5TC12: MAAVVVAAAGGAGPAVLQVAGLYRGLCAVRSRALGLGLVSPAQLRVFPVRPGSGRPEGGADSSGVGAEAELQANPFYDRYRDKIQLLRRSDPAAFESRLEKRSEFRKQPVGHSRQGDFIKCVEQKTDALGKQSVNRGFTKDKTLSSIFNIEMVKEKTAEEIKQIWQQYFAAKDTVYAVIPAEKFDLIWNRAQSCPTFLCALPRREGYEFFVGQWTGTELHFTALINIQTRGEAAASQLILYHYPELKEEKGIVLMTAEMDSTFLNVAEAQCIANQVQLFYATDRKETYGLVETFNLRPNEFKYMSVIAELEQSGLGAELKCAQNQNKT
UniProt Q6Y288: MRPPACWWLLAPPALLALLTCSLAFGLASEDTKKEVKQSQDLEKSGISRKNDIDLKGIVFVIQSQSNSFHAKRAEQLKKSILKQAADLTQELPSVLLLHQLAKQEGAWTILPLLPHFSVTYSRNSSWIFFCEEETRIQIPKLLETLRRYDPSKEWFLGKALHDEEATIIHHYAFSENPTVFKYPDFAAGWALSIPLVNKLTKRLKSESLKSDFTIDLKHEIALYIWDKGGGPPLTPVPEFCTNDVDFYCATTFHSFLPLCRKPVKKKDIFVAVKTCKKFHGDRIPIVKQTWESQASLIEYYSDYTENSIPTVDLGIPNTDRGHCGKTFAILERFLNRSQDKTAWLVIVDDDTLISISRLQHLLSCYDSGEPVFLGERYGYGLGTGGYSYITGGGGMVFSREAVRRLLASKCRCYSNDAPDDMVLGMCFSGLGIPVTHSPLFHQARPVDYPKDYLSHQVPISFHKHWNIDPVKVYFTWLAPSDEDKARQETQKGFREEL
UniProt P18859: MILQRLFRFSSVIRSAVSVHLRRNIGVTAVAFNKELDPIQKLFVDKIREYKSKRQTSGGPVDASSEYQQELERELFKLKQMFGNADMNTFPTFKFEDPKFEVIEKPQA

How the values were obtained:
Experiment in all cases: log2 fold change, soluble protein after heating vs DMSO (PISA); higher = thermal stabilisation; K562 lysate, 10 uM; active = over 0.2 and 3.5 SD of the protein, either way, in both replicates (recomputed)
erlotinib = compound: C#Cc1cccc(Nc2ncnc3cc(OCCOC)c(OCCOC)cc23)c1 [erlotinib]
Summary of the method: (§1)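 Thermal stability, expressed as log-two fold change relative to solvent controls, is given from duplicates. Crude K562 extract in PBS pH 7.4 with 1 mM MgCl2, at 1 mg/mL protein, was treated with 10 μM compound for 30 min and heated in aliquots for 3 min across 48°C-58°C. After pooling, adjustment to 0.5% NP-40 at 4°C and centrifugation at 21,000xg for 90 min, supernatant protein was measured by TMTpro 16plex LC-MS/MS with channel sums equalised.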

[1] = compound: C/C(=N\NC(=O)C1=CC(=CC=C1)S(=O)(=O)N2CCOCC2)/C3=C(C=CC(=C3)Cl)O
Summary of the method: as §1

[2] = compound: C1=CC(=CC=C1C2=NC3=C(N2)C=C(C=C3)C(=O)N)OC4=CC=C(C=C4)Cl
Summary of the method: as §1

[3] = compound: C1=CC2=C(C=CC(=C2)/C=C\3/C(=O)NC(=NCC4=CC=CS4)S3)N=C1
Summary of the method: as §1

[4] = compound: C1=CC2=NC=CN=C2C=C1/C=C/3\C(=O)NC(=O)S3
Summary of the method: as §1

[5] = compound: C1=CC=C(C=C1)C2=NC(=C(N2)C3=CC=NC=C3)C4=CC(=C(C=C4)Cl)O
Summary of the method: as §1

[6] = compound: C1=CC=C2C(=C1)C3=NNC4=CC=CC(=C43)C2=O
Summary of the method: as §1

[7] = compound: C1CCN(C1)C(=O)NC2=CC=CC(=C2)NC3=NC=C(C(=N3)NCCC4=CN=CN4)Br
Summary of the method: as §1

[8] = compound: C1CN(CCC1(CC2=CC=C(C=C2)Cl)N)C3=NC=NC4=C3C=CN4
Summary of the method: as §1

IRAK-1-4 Inhibitor I = compound: C1COCCN1CCN2C3=CC=CC=C3N=C2NC(=O)C4=CC(=CC=C4)[N+](=O)[O-] [IRAK-1-4 Inhibitor I]
Summary of the method: as §1

ibrutinib = compound: C=CC(=O)N1CCC[C@@H](n2nc(-c3ccc(Oc4ccccc4)cc3)c3c(N)ncnc32)C1 [ibrutinib]
Summary of the method: as §1

[9] = compound: CC(=O)c1cnc2ccc(-c3cc(Cl)c(O)c(Cl)c3)nc2c1N[C@H]1CC[C@H](CN(C)C)CC1
Summary of the method: as §1

ralimetinib = compound: CC(C)(C)Cn1c(N)nc2ccc(-c3[nH]c(C(C)(C)C)nc3-c3ccc(F)cc3)nc21 [ralimetinib]
Summary of the method: as §1

[10] = compound: CC(C)(O)CC(=O)NCCn1ccc2ncnc(Nc3ccc(Oc4cccc(C(F)(F)F)c4)c(Cl)c3)c21
Summary of the method: as §1

[11] = compound: CC(C)C1=C2N=C(C=C(N2N=C1)NCC3=CC=CC=C3)NCCCCCCN
Summary of the method: as §1

[12] = compound: CC1=C(C(CC(=O)N1)C2=CC=C(C=C2)C(F)(F)F)C(=O)NC3=C(C=C4C(=C3)C=NN4)F
Summary of the method: as §1

[13] = compound: CC1=C(C2=C(C=C1)C(=O)C3=CC=CC=C3N2CCCN)C
Summary of the method: as §1

[14] = compound: CC1=C(C=C(C=C1)NC(=O)C2=CC(=CC=C2)C(C)(C)C#N)NC3=CC4=C(C=C3)N=CN(C4=O)C
Summary of the method: as §1

[15] = compound: CC1=C(C=C(C=C1)NC(=O)C2=CC(=CC=C2)N(C)C)NC(=O)C3=CC=C(C=C3)O
Summary of the method: as §1

[16] = compound: CC1=CC=C(C=C1)SC2=C3C=C(SC3=CN=C2)C(=O)N
Summary of the method: as §1

Measured: log2 fold change

AXIN1 (UniProt O15169)
inactive: erlotinib 0.02 | [1] 0.029 | [2] -0.061 | [3] 0.042 | [4] -0.158 | [5] -0.012 | [6] 0.108 | [7] -0.021 | [8] -0.024 | IRAK-1-4 Inhibitor I 0.043 | ibrutinib 0.025 | [9] 0.003 | ralimetinib 0.019 | [10] 0.03 | [11] 0.117 | [12] 0.092 | [13] 0.145 | [14] 0.176 | [15] -0.095 | [16] 0.07

ATG7 (UniProt O95352)
inactive: erlotinib 0.03 | [1] 0.113 | [2] 0.035 | [3] 0.001 | [4] 0.015 | [5] -0.003 | [6] -0.06 | [7] -0.028 | [8] 0.032 | IRAK-1-4 Inhibitor I 0.017 | ibrutinib 0.014 | [9] -0.008 | ralimetinib 0.026 | [10] -0.016 | [11] -0.022 | [12] 0.021 | [13] 0.002 | [14] -0.001 | [15] 0.011 | [16] 0.027

ATIC (UniProt P31939)
inactive: erlotinib 0.015 | [1] 0.074 | [2] -0.002 | [3] -0.005 | [4] -0.001 | [5] 0.006 | [6] -0.019 | [7] -0.013 | [8] 0.002 | IRAK-1-4 Inhibitor I 0 | ibrutinib 0.021 | [9] -0.001 | ralimetinib -0.014 | [10] 0.009 | [11] 0.018 | [12] -0.018 | [13] -0.008 | [14] -0.02 | [15] -0.015 | [16] 0.027

ATP5F1D (UniProt P30049)
inactive: erlotinib -0.006 | [1] 0.035 | [2] -0.043 | [3] -0.003 | [4] 0.016 | [5] -0.014 | [6] -0.035 | [7] 0.019 | [8] 0.046 | IRAK-1-4 Inhibitor I 0.041 | ibrutinib 0.004 | [9] -0.04 | ralimetinib -0.057 | [10] -0.053 | [11] 0.015 | [12] -0.03 | [13] 0.01 | [14] 0.082 | [15] -0.012 | [16] 0.047

ATE1 isoform 2 (UniProt O95260)
inactive: erlotinib -0.022 | [1] -0.01 | [2] 0.002 | [3] -0.063 | [4] 0.027 | [5] 0.007 | [6] 0.021 | [7] 0.054 | [8] 0.013 | IRAK-1-4 Inhibitor I -0.038 | ibrutinib 0.056 | [9] 0.001 | ralimetinib -0.006 | [10] 0.063 | [11] -0.016 | [12] 0.048 | [13] -0.001 | [14] -0.04 | [15] -0.004 | [16] 0.011

ATG2A isoform 3 (UniProt Q2TAZ0)
inactive: erlotinib 0.044 | [1] 0.089 | [2] -0.103 | [3] -0.041 | [4] -0.041 | [5] -0.011 | [6] -0.033 | [7] 0 | [8] 0.011 | IRAK-1-4 Inhibitor I 0.041 | ibrutinib -0.013 | [9] -0.015 | ralimetinib 0.045 | [10] -0.009 | [11] 0.067 | [12] 0.121 | [13] -0.035 | [14] -0.017 | [15] 0.058 | [16] -0.018

ATP2A3 isoform 2 (UniProt Q93084)
inactive: erlotinib 0.008 | [1] 0.109 | [2] -0.048 | [3] 0.005 | [4] 0.002 | [5] -0.013 | [6] -0.018 | [7] -0.025 | [8] 0.074 | IRAK-1-4 Inhibitor I 0.043 | ibrutinib -0.047 | [9] -0.025 | ralimetinib 0.018 | [10] 0.028 | [11] -0.011 | [12] -0.023 | [13] -0.001 | [14] 0.029 | [15] 0.024 | [16] 0.027

ATP6V1E1 (UniProt P36543)
inactive: erlotinib 0.017 | [1] 0.088 | [2] 0.02 | [3] 0.001 | [4] -0.053 | [5] -0.014 | [6] -0.036 | [7] -0.009 | [8] 0.036 | IRAK-1-4 Inhibitor I 0.001 | ibrutinib 0.023 | [9] -0.016 | ralimetinib -0.013 | [10] -0.009 | [11] -0.016 | [12] -0.014 | [13] 0.008 | [14] -0.005 | [15] 0 | [16] -0.015

ATP1B3 (UniProt P54709)
inactive: erlotinib -0.009 | [1] -0.021 | [2] 0.013 | [3] -0.002 | [4] 0.02 | [5] 0.01 | [6] 0.014 | [7] -0.003 | [8] 0.009 | IRAK-1-4 Inhibitor I -0.008 | ibrutinib -0.014 | [9] 0.003 | ralimetinib -0.003 | [10] 0.007 | [11] -0.009 | [12] -0.014 | [13] -0.009 | [14] -0.01 | [15] 0.008 | [16] -0.021

Two records picked at random from the list so far:
ATG2A isoform 3 (UniProt Q2TAZ0)
inactive: erlotinib 0.044 | [1] 0.089 | [2] -0.103 | [3] -0.041 | [4] -0.041 | [5] -0.011 | [6] -0.033 | [7] 0 | [8] 0.011 | IRAK-1-4 Inhibitor I 0.041 | ibrutinib -0.013 | [9] -0.015 | ralimetinib 0.045 | [10] -0.009 | [11] 0.067 | [12] 0.121 | [13] -0.035 | [14] -0.017 | [15] 0.058 | [16] -0.018

ATG7 (UniProt O95352)
inactive: erlotinib 0.03 | [1] 0.113 | [2] 0.035 | [3] 0.001 | [4] 0.015 | [5] -0.003 | [6] -0.06 | [7] -0.028 | [8] 0.032 | IRAK-1-4 Inhibitor I 0.017 | ibrutinib 0.014 | [9] -0.008 | ralimetinib 0.026 | [10] -0.016 | [11] -0.022 | [12] 0.021 | [13] 0.002 | [14] -0.001 | [15] 0.011 | [16] 0.027

(further entries)

ATOX1 (UniProt O00244)
inactive: erlotinib 0.025 | [1] 0.105 | [2] -0.057 | [3] 0.019 | [4] 0.023 | [5] -0.055 | [6] 0.039 | [7] -0.029 | [8] 0.049 | IRAK-1-4 Inhibitor I 0.019 | ibrutinib 0.161 | [9] -0.006 | ralimetinib 0.015 | [10] 0.001 | [11] -0.047 | [12] -0.018 | [13] 0.067 | [14] 0.03 | [15] 0.071 | [16] 0.066

ATP5F1A (UniProt P25705)
inactive: erlotinib -0.027 | [1] -0.023 | [2] 0.011 | [3] 0.001 | [4] 0.003 | [5] -0.016 | [6] 0.005 | [7] 0.022 | [8] -0.008 | IRAK-1-4 Inhibitor I 0.011 | ibrutinib -0.01 | [9] -0.01 | ralimetinib -0.006 | [10] -0.016 | [11] -0.002 | [12] -0.025 | [13] 0.022 | [14] 0.004 | [15] 0.003 | [16] 0

ATPAF2 (UniProt Q8N5M1)
inactive: erlotinib 0.012 | [1] -0.005 | [2] -0.015 | [3] -0.014 | [4] -0.006 | [5] 0.007 | [6] -0.058 | [7] -0.031 | [8] 0.054 | IRAK-1-4 Inhibitor I -0.007 | ibrutinib 0.002 | [9] -0.005 | ralimetinib -0.032 | [10] -0.075 | [11] -0.051 | [12] 0.019 | [13] -0.008 | [14] 0.082 | [15] -0.013 | [16] 0.003

ATPAF1 (UniProt Q5TC12)
inactive: erlotinib -0.029 | [1] -0.028 | [2] 0.01 | [3] 0.034 | [4] 0.011 | [5] -0.017 | [6] -0.038 | [7] -0.041 | [8] 0.018 | IRAK-1-4 Inhibitor I 0.003 | ibrutinib -0.004 | [9] -0.003 | ralimetinib -0.012 | [10] -0.029 | [11] 0.002 | [12] 0.024 | [13] -0.001 | [14] 0.041 | [15] -0.008 | [16] -0.037

B3GLCT (UniProt Q6Y288)
inactive: erlotinib 0.043 | [1] -0.07 | [2] -0.021 | [3] 0.03 | [4] -0.078 | [5] 0.006 | [6] -0.029 | [7] -0.048 | [8] 0.005 | IRAK-1-4 Inhibitor I 0.048 | ibrutinib 0.04 | [9] 0.03 | ralimetinib -0.024 | [10] -0.013 | [11] 0.013 | [12] -0.038 | [13] -0.019 | [14] 0.02 | [15] 0.089 | [16] 0.007

ATP5PF isoform 2 (UniProt P18859)
inactive: erlotinib 0.063 | [1] 0.107 | [2] -0.021 | [3] 0.011 | [4] 0.017 | [5] 0.05 | [6] -0.01 | [7] -0.003 | [8] 0.09 | IRAK-1-4 Inhibitor I -0.026 | ibrutinib 0.069 | [9] -0.055 | ralimetinib -0.003 | [10] 0.063 | [11] -0.053 | [12] -0.032 | [13] -0.055 | [14] 0.026 | [15] 0.05 | [16] 0.083
